The target in this assay is T1, GIPC2-HA (human) (UniProt Q8TF65).
T1 sequence: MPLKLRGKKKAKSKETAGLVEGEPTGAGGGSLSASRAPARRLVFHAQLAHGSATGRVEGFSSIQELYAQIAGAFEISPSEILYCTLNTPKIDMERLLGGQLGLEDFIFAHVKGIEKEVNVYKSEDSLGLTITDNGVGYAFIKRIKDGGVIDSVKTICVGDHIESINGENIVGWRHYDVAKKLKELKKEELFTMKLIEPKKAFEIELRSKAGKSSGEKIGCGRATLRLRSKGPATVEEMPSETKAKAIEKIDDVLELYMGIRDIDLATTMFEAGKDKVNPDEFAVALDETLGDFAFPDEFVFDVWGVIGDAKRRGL
Description: affinity purification with mass spectrometry; extracts of 293T cells overexpressing GIPC2-HA immunoprecipitated with anti-HA antibody; SDS-PAGE, coomassie staining, four bands excised, LC-MS/MS.

These are yes or no findings as the source states them, for the method shown. In cells and extracts the contact can be indirect. These calls come from enrichment with a bait or labelling near it, and not all partners need be listed. Where a sequence is shown, tags or fusion partners need not be part of it.

This is an account of results in publication PMC8096975.

B1: NONO (endogenous, 293T) (protein, UniProt Q15233 1-471)
chain: MQSNKTFNLEKQNHTPRKHHQHHHQQQHHQQQQQQPPPPPIPANGQQASSQNEGLTIDLKNFRKPGEKTFTQRSRLFVGNLPPDITEEEMRKLFEKYGKAGEVFIHKDKGFGFIRLETRTLAEIAKVELDNMPLRGKQLRVRFACHSASLTVRNLPQYVSNELLEEAFSVFGQVERAVVIVDDRGRPSGKGIVEFSGKPAARKALDRCSEGSFLLTTFPRPVTVEPMDQLDDEEGLPEKLVIKNQQFHKEREQPPRFAQPGSFEYEYAMRWKALIEMEKQQQDQVDRNIKEAREKLEMEMEAARHEHQVMLMRQDLMRRQEELRRMEELHNQEVQKRKQLELRQEEERRRREEEMRRQQEEMMRRQQEGFKGTFPDAREQEIRMGQMAMGGAMGINNRGAMPPAPVPAGTPAPPGPATMMPDGTLGLTPPTTERFGQAATMEGIGAIGGTPPAFNRAAPGAEFAPNKRRRY
As for B1, the binding result is given as “binds”.
